Source: the supplement of paper PMC12823440, “Inhibitors supercharge kinase turnover through native proteolytic circuits” (Nature, 2025)
Where a name gives a salt, the structure may show the parent alone. This is one part of the list. The calls rarely recur for the same compound in another form.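 Kinases were expressed as nanoluciferase fusions in K562 cells and luminescence was read every 4 h between 2 and 18 h as percent of control, DMSO set to 100% and a positive control to 0%. A time point counts as decreased when the signal drops significantly (2 sigma). The hit call is the authors' own, does not follow from the count of time points alone, and its rule is not shown.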

Sequences of proteins named here, by UniProt entry; tags and fusion partners are left off. A change or cut given only in a name is not applied to a line headed by its entry.
UniProt P00519, whole entry: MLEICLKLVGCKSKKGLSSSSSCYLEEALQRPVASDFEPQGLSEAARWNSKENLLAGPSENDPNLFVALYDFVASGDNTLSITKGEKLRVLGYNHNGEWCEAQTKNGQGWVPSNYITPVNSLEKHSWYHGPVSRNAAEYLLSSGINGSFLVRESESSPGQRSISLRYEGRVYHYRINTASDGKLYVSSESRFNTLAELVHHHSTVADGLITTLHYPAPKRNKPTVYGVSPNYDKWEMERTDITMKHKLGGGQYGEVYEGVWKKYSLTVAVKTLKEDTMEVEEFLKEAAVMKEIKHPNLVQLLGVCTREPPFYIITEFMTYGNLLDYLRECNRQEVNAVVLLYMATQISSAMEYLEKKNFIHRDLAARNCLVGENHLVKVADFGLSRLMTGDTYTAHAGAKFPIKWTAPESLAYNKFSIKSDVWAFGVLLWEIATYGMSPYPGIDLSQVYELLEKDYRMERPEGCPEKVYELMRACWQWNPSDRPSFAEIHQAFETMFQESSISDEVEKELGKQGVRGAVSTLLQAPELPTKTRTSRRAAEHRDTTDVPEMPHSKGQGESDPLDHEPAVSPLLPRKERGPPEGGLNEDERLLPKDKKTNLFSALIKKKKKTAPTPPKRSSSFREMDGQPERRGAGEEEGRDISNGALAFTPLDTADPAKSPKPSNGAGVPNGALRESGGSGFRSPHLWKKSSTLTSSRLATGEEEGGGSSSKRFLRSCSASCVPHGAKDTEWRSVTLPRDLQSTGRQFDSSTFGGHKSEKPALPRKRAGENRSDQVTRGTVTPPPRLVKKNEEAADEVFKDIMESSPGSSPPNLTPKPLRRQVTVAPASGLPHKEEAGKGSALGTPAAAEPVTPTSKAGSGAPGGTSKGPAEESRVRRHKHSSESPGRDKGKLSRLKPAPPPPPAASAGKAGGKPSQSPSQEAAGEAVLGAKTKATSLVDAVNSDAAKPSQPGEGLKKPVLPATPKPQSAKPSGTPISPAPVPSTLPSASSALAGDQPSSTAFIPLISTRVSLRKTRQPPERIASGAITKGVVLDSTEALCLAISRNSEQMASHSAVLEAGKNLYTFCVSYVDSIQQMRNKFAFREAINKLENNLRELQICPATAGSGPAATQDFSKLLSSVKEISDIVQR
UniProt P31749: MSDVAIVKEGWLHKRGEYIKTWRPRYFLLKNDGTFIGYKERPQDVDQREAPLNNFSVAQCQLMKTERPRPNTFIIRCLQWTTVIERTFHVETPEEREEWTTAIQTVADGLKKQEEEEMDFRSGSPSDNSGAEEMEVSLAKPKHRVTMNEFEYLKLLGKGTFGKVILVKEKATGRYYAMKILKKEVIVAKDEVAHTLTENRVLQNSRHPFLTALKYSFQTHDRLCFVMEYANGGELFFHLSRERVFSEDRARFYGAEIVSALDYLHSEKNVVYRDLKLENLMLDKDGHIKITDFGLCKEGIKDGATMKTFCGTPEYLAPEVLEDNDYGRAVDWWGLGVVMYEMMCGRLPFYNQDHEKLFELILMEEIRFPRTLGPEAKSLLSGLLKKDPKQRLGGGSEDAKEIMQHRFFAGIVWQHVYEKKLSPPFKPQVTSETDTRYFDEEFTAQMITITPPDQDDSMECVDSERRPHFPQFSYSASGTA
UniProt Q9UM73: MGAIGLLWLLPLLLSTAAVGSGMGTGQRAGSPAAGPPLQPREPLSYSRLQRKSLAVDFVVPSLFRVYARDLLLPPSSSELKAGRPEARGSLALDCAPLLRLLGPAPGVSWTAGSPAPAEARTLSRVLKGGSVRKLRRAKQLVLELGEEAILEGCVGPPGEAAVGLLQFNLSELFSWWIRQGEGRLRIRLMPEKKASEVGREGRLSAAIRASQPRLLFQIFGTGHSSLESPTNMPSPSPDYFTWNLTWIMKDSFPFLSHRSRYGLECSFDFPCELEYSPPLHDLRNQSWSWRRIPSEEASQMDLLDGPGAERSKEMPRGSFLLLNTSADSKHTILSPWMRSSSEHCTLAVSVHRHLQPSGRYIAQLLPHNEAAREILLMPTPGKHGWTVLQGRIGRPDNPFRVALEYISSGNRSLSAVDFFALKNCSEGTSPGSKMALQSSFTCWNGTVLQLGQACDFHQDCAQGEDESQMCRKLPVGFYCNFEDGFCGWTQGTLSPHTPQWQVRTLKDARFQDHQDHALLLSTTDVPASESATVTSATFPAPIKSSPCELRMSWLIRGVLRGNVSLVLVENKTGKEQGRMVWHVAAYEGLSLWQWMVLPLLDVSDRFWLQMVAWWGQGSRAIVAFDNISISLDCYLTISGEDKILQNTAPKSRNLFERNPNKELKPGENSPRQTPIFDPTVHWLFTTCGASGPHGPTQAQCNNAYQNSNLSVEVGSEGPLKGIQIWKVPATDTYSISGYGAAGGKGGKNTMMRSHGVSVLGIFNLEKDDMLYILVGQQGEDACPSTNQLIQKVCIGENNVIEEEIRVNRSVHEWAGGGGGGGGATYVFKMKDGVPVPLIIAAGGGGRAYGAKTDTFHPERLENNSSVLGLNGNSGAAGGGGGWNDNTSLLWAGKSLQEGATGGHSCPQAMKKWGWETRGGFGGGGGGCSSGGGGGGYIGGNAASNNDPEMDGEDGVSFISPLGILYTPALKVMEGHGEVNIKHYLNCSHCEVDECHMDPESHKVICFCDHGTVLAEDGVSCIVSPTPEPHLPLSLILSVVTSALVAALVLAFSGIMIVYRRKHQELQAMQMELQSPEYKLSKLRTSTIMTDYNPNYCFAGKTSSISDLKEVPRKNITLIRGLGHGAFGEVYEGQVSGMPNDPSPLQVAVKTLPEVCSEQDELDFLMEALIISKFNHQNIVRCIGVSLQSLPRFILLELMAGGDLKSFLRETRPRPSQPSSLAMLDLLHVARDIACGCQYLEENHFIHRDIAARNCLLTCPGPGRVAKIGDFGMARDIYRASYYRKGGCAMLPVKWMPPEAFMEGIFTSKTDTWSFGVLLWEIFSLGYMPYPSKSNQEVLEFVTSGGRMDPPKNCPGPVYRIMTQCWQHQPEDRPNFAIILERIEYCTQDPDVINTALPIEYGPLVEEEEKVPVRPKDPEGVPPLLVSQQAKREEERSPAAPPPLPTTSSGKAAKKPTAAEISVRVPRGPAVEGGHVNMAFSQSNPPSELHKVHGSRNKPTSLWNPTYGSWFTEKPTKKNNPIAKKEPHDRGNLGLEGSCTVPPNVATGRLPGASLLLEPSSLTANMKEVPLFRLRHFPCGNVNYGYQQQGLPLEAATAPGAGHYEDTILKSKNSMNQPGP
UniProt P10398: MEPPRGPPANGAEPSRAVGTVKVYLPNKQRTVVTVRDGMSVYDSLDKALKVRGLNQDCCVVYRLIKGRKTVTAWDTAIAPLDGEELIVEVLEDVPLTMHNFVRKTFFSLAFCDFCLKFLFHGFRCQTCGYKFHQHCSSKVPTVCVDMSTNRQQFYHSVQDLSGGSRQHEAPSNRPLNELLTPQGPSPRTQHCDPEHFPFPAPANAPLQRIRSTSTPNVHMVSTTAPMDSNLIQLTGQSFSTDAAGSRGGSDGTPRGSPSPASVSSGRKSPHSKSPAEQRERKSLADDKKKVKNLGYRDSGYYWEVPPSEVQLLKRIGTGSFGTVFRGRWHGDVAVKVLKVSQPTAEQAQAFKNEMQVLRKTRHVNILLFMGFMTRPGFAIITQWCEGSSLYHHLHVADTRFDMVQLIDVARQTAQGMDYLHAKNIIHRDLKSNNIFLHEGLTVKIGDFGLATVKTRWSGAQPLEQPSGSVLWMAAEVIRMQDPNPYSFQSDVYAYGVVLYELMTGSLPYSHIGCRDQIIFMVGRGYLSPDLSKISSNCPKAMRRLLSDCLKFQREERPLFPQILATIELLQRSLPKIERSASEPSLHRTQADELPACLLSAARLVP
UniProt Q96GD4, whole entry: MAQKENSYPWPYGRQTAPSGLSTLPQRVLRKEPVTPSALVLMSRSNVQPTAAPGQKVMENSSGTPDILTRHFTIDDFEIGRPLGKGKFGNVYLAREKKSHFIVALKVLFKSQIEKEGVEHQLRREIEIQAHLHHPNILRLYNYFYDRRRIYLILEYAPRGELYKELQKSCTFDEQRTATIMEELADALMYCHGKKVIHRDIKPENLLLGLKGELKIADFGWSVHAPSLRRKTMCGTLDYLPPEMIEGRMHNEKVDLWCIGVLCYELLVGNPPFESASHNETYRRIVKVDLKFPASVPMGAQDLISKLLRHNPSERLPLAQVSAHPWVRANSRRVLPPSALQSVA
UniProt Q9UQB9: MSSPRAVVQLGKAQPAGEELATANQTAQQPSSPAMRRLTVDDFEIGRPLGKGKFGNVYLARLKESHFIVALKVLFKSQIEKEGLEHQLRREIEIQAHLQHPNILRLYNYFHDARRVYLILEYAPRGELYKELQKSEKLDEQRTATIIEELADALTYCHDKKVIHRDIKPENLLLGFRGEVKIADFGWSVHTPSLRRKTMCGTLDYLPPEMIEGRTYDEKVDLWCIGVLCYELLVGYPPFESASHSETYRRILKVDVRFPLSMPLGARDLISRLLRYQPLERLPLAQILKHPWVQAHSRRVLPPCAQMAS
UniProt P51451: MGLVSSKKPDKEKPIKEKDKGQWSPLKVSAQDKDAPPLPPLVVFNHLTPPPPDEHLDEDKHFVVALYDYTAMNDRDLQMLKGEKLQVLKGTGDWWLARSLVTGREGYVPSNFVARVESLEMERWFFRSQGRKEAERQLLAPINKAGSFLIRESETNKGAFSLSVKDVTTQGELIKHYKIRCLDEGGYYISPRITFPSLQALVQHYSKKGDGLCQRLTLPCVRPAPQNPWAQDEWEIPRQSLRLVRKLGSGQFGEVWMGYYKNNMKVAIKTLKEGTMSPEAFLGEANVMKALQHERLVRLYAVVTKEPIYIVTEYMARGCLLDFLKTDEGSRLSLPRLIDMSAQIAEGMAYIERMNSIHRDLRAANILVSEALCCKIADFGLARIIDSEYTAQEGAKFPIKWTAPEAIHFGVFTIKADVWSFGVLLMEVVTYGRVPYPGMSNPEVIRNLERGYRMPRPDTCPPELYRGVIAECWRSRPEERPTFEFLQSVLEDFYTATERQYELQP
UniProt P51813: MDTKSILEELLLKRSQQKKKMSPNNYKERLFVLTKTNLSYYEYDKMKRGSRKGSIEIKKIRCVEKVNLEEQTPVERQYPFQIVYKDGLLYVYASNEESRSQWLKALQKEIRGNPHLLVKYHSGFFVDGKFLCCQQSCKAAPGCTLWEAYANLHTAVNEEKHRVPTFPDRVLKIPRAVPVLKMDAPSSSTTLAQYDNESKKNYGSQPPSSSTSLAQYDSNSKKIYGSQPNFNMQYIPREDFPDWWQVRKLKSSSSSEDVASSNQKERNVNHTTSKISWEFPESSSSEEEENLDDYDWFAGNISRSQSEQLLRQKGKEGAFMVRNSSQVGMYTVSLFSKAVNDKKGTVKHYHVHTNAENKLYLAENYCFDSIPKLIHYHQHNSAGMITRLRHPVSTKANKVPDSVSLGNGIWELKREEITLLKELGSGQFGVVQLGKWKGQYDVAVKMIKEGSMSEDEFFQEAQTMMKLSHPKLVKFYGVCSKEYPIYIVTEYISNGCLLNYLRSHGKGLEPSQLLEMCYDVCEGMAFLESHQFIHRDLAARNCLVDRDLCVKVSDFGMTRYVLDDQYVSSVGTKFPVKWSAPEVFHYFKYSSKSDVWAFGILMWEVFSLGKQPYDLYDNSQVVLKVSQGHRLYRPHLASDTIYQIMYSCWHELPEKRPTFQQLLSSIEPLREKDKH
UniProt P15056, whole entry, looked up: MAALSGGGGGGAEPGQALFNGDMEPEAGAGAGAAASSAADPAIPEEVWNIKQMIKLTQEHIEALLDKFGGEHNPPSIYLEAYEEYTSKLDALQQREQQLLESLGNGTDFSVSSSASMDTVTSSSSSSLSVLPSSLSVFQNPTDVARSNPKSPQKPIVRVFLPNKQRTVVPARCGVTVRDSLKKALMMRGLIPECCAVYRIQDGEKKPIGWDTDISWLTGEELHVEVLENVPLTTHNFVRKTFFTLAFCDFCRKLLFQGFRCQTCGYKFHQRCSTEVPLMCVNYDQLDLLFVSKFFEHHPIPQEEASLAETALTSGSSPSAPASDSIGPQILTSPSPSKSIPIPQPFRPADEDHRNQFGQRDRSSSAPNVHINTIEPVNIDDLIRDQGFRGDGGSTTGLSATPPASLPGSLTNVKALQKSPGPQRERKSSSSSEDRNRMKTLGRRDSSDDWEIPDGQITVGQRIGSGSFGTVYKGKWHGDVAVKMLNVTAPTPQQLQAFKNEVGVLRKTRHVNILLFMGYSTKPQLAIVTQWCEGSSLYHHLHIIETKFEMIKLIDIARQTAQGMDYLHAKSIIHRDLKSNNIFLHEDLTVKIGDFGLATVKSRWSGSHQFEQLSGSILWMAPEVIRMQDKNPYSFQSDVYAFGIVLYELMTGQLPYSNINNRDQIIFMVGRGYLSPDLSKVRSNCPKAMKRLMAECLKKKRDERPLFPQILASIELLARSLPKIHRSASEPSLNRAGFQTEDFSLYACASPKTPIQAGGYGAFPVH

How the values were obtained:
Test in all cases: kinase-Nluc reporter destabilization hit call (1 = scored as downregulated) (binary); higher = compound decreases kinase abundance
Conditions in all cases: K562; 2-18 h
ABL1 = ABL1 (UniProt P00519)
AKT1 = AKT1 (UniProt P31749)
ALK = ALK (UniProt Q9UM73)
ARAF = ARAF (UniProt P10398)
AURKA = AURKA (UniProt O14965)
AURKB = AURKB (UniProt Q96GD4)
AURKC = AURKC (UniProt Q9UQB9)
BLK = BLK (UniProt P51451)
BMX = BMX (UniProt P51813)
BRAF = BRAF (UniProt P15056)

Measured: kinase-Nluc reporter destabilization hit call

CNC(=O)c1cc2c(Oc3ccc(NC(=O)C4(C(=O)Nc5ccc(F)cc5)CC4)cc3)ccnc2cc1OC (2.5 µM)
inactive: ABL1 = 0 | AKT1 = 0 | ALK 0 | ARAF 0 | AURKA 0 | AURKB 0 | AURKC 0 | BLK 0 | BMX 0 | BRAF 0

Cc1nn(C)cc1-c1nc2c(N3CCN(Cc4ccc(Cl)cc4)CC3)c(Cl)cnc2[nH]1 (10 µM)
inactive: ABL1 = 0 | AKT1 = 0 | ALK 0 | ARAF 0 | AURKA 0 | AURKB 0 | AURKC 0 | BLK 0 | BMX 0 | BRAF 0

Nc1nc(N)c2nc(-c3cccc(O)c3)c(-c3cccc(O)c3)nc2n1 (10 µM)
inactive: ABL1 = 0 | AKT1 = 0 | ALK 0 | ARAF 0 | AURKA 0 | AURKB 0 | AURKC 0 | BLK 0 | BMX 0 | BRAF 0

COc1cc(N2CCC(N3CCN(C)CC3)CC2)ccc1Nc1ncc(Cl)c(-c2c[nH]c3ccccc23)n1 (2.5 µM)
inactive: ABL1 = 0 | AKT1 = 0 | ALK 0 | ARAF 0 | AURKA 0 | AURKB 0 | AURKC 0 | BLK 0 | BMX 0 | BRAF 0

CNC(=O)c1ccc2c(c1)ncn2-c1ccc(CC(=O)OC(C)(C)C)cc1 (10 µM)
inactive: ABL1 = 0 | AKT1 = 0 | ALK 0 | ARAF 0 | AURKA 0 | AURKB 0 | AURKC 0 | BLK 0 | BMX 0 | BRAF 0

N[C@@H]1CCCN(c2c(/C=C3\SC(=O)NC3=O)cccc2-c2ccccc2)C1 (10 µM)
inactive: ABL1 = 0 | AKT1 = 0 | ALK 0 | ARAF 0 | AURKA 0 | AURKB 0 | AURKC 0 | BLK 0 | BMX 0 | BRAF 0

O=C(Nc1ccc(Cl)cc1)C1CCCN(C(=O)c2cc(C(F)(F)F)cc(C(F)(F)F)c2)C1 (stereo not given) (10 µM)
inactive: ABL1 = 0 | AKT1 = 0 | ALK 0 | ARAF 0 | AURKA 0 | AURKB 0 | AURKC 0 | BLK 0 | BMX 0 | BRAF 0

CCN1CCN(Cc2cnc(Nc3cc(-c4cc(F)c5nc(C)n(C(C)C)c5c4)c(F)cn3)nc2)CC1 (10 µM)
inactive: ABL1 = 0 | AKT1 = 0 | ALK 0 | ARAF 0 | AURKA 0 | AURKB 0 | AURKC 0 | BLK 0 | BMX 0 | BRAF 0

O=C(O)[C@H]1O[C@@H](Oc2cc3oc(-c4ccc(O)cc4)cc(=O)c3c(O)c2O)[C@H](O)[C@@H](O)[C@@H]1O [Scutellarin] (10 µM)
inactive: ABL1 = 0 | AKT1 = 0 | ALK 0 | ARAF 0 | AURKA 0 | AURKB 0 | AURKC 0 | BLK 0 | BMX 0 | BRAF 0

Clc1ccc(C(c2ccc(Cl)cc2)[n+]2ccn(CC(OCc3ccc(Cl)cc3Cl)c3ccc(Cl)cc3Cl)c2)cc1 (stereo not given) [Calmidazolium chloride] (2.5 µM)
inactive: ABL1 = 0 | AKT1 = 0 | ALK 0 | ARAF 0 | AURKA 0 | AURKB 0 | AURKC 0 | BLK 0 | BMX 0 | BRAF 0

Brc1ccc(CSc2nc3ccccc3o2)cc1 [BMP signaling agonist sb4] (10 µM)
inactive: ABL1 = 0 | AKT1 = 0 | ALK 0 | ARAF 0 | AURKA 0 | AURKB 0 | AURKC 0 | BLK 0 | BMX 0 | BRAF 0

NC1(C(=O)NCCCn2cc(-c3ccc(OC(F)(F)F)cc3)c3cc(CN4CCN(Cc5c(Cl)cccc5Cl)CC4)ccc32)CCNCC1 (2.5 µM)
inactive: ABL1 = 0 | AKT1 = 0 | ALK 0 | ARAF 0 | AURKA 0 | AURKB 0 | AURKC 0 | BLK 0 | BMX 0 | BRAF 0

CC(C)[C@H](CO)Nc1nc(Nc2cccc(Cl)c2)c2ncn(C(C)C)c2n1 [Purvalanol A] (10 µM)
active: BRAF 1
inactive: ABL1 = 0 | AKT1 = 0 | ALK 0 | ARAF 0 | AURKA 0 | AURKB 0 | AURKC 0 | BLK 0 | BMX 0

COc1ccc(Br)cc1NC(=O)Nc1cccc2c1ccn2Cc1ccnc(N)c1 (2.5 µM)
inactive: ABL1 = 0 | AKT1 = 0 | ALK 0 | ARAF 0 | AURKA 0 | AURKB 0 | AURKC 0 | BLK 0 | BMX 0 | BRAF 0

COc1cc2c(cc1O)C[C@H]1c3cc(O)c(OC)cc3CC[N@@+]1(C)C2 [Phellodendrine] (10 µM)
inactive: ABL1 = 0 | AKT1 = 0 | ALK 0 | ARAF 0 | AURKA 0 | AURKB 0 | AURKC 0 | BLK 0 | BMX 0 | BRAF 0

Nothing new here: eight of the compounds above.
O=C(Nc1ccc(Cl)cc1)C1CCCN(C(=O)c2cc(C(F)(F)F)cc(C(F)(F)F)c2)C1 (stereo not given) (10 µM)
inactive: ABL1 = 0 | AKT1 = 0 | ALK 0 | ARAF 0 | AURKA 0 | AURKB 0 | AURKC 0 | BLK 0 | BMX 0 | BRAF 0

CCN1CCN(Cc2cnc(Nc3cc(-c4cc(F)c5nc(C)n(C(C)C)c5c4)c(F)cn3)nc2)CC1 (10 µM)
inactive: ABL1 = 0 | AKT1 = 0 | ALK 0 | ARAF 0 | AURKA 0 | AURKB 0 | AURKC 0 | BLK 0 | BMX 0 | BRAF 0

O=C(O)[C@H]1O[C@@H](Oc2cc3oc(-c4ccc(O)cc4)cc(=O)c3c(O)c2O)[C@H](O)[C@@H](O)[C@@H]1O [Scutellarin] (10 µM)
inactive: ABL1 = 0 | AKT1 = 0 | ALK 0 | ARAF 0 | AURKA 0 | AURKB 0 | AURKC 0 | BLK 0 | BMX 0 | BRAF 0

Clc1ccc(C(c2ccc(Cl)cc2)[n+]2ccn(CC(OCc3ccc(Cl)cc3Cl)c3ccc(Cl)cc3Cl)c2)cc1 (stereo not given) [Calmidazolium chloride] (2.5 µM)
inactive: ABL1 = 0 | AKT1 = 0 | ALK 0 | ARAF 0 | AURKA 0 | AURKB 0 | AURKC 0 | BLK 0 | BMX 0 | BRAF 0

Brc1ccc(CSc2nc3ccccc3o2)cc1 [BMP signaling agonist sb4] (10 µM)
inactive: ABL1 = 0 | AKT1 = 0 | ALK 0 | ARAF 0 | AURKA 0 | AURKB 0 | AURKC 0 | BLK 0 | BMX 0 | BRAF 0

NC1(C(=O)NCCCn2cc(-c3ccc(OC(F)(F)F)cc3)c3cc(CN4CCN(Cc5c(Cl)cccc5Cl)CC4)ccc32)CCNCC1 (2.5 µM)
inactive: ABL1 = 0 | AKT1 = 0 | ALK 0 | ARAF 0 | AURKA 0 | AURKB 0 | AURKC 0 | BLK 0 | BMX 0 | BRAF 0

CC(C)[C@H](CO)Nc1nc(Nc2cccc(Cl)c2)c2ncn(C(C)C)c2n1 [Purvalanol A] (10 µM)
active: BRAF 1
inactive: ABL1 = 0 | AKT1 = 0 | ALK 0 | ARAF 0 | AURKA 0 | AURKB 0 | AURKC 0 | BLK 0 | BMX 0

COc1ccc(Br)cc1NC(=O)Nc1cccc2c1ccn2Cc1ccnc(N)c1 (2.5 µM)
inactive: ABL1 = 0 | AKT1 = 0 | ALK 0 | ARAF 0 | AURKA 0 | AURKB 0 | AURKC 0 | BLK 0 | BMX 0 | BRAF 0

Later entries

C=C1C(=O)[C@@]23[C@H](O)C[C@@H]4C(C)(C)C(=O)CC[C@@]4(C)[C@@H]2CC[C@@H]1[C@H]3O [Glaucocalyxin A] (2.5 µM)
inactive: ABL1 = 0 | AKT1 = 0 | ALK 0 | ARAF 0 | AURKA 0 | AURKB 0 | AURKC 0 | BLK 0 | BMX 0 | BRAF 0

COC(=O)[C@H](CCSC)NC(=O)c1ccc(NC[C@@H](N)CS)cc1-c1ccccc1 [FTI-277 (hydrochloride)] (10 µM)
inactive: ABL1 = 0 | AKT1 = 0 | ALK 0 | ARAF 0 | AURKA 0 | AURKB 0 | AURKC 0 | BLK 0 | BMX 0 | BRAF 0

N#Cc1ccc(-c2cnc3ccc(-c4ccc(C(=O)N5CCOCC5)cc4)cn23)cc1 (10 µM)
inactive: ABL1 = 0 | AKT1 = 0 | ALK 0 | ARAF 0 | AURKA 0 | AURKB 0 | AURKC 0 | BLK 0 | BMX 0 | BRAF 0

CCN(CC)CCOc1ccc(Nc2nc(-c3ccccc3NC(=O)CCN3CCN(C)CC3)nc3ccccc23)cc1 (2.5 µM)
inactive: ABL1 = 0 | AKT1 = 0 | ALK 0 | ARAF 0 | AURKA 0 | AURKB 0 | AURKC 0 | BLK 0 | BMX 0 | BRAF 0

CN1CCC(CNc2ccc3ncc(-c4cccc(OC(F)(F)F)c4)n3n2)CC1 (2.5 µM)
inactive: ABL1 = 0 | AKT1 = 0 | ALK 0 | ARAF 0 | AURKA 0 | AURKB 0 | AURKC 0 | BLK 0 | BMX 0 | BRAF 0

Cc1c(Cl)cccc1S(=O)(=O)Nc1nc(NCCc2ccccc2)nc2c1CN(Cc1ccccc1)CC2 (2.5 µM)
inactive: ABL1 = 0 | AKT1 = 0 | ALK 0 | ARAF 0 | AURKA 0 | AURKB 0 | AURKC 0 | BLK 0 | BMX 0 | BRAF 0

O=C1NC(=O)/C(=C\c2c[nH]c(=O)c(-c3ccc(N4CCNCC4)nc3)c2)S1 [Protein kinase inhibitors 1 hydrochloride] (10 µM)
inactive: ABL1 = 0 | AKT1 = 0 | ALK 0 | ARAF 0 | AURKA 0 | AURKB 0 | AURKC 0 | BLK 0 | BMX 0 | BRAF 0

COCCOCCc1c(C)c2cc(OC)c(O)c(C=O)c2oc1=O (10 µM)
inactive: ABL1 = 0 | AKT1 = 0 | ALK 0 | ARAF 0 | AURKA 0 | AURKB 0 | AURKC 0 | BLK 0 | BMX 0 | BRAF 0

Cc1ccc(NC(=O)Nc2cc(C(F)(F)F)ccc2F)cc1Nc1ccc2c(c1)NC(=O)/C2=C\c1ccc[nH]1 (2.5 µM)
inactive: ABL1 = 0 | AKT1 = 0 | ALK 0 | ARAF 0 | AURKA 0 | AURKB 0 | AURKC 0 | BLK 0 | BMX 0 | BRAF 0

CO[C@H]1C[C@@H]2CC[C@@H](C)[C@@](O)(O2)C(=O)C(=O)N2CCCC[C@H]2C(=O)O[C@H]([C@H](C)C[C@@H]2CC[C@@H](OCCO)[C@H](OC)C2)CC(=O)[C@H](C)/C=C(\C)[C@@H](O)[C@@H](OC)C(=O)[C@H](C)C[C@H](C)/C=C/C=C/C=C/1C [Everolimus] (10 µM)
inactive: ABL1 = 0 | AKT1 = 0 | ALK 0 | ARAF 0 | AURKA 0 | AURKB 0 | AURKC 0 | BLK 0 | BMX 0 | BRAF 0

C[C@H]1O[C@@H](O[C@H]2CC[C@@]3(C)[C@@H](CC[C@]4(C)[C@@H]3C=C[C@]35OC[C@@]6(CCC(C)(C)C[C@H]63)[C@H](O)C[C@]54C)[C@]2(C)CO)[C@H](O)[C@@H](O[C@@H]2O[C@H](CO)[C@@H](O)[C@H](O)[C@H]2O)[C@H]1O [Saikosaponin D] (2.5 µM)
inactive: ABL1 = 0 | AKT1 = 0 | ALK 0 | ARAF 0 | AURKA 0 | AURKB 0 | AURKC 0 | BLK 0 | BMX 0 | BRAF 0

Cc1cc(C(=O)NOCCO)c(Nc2ccc(I)cc2F)n(C)c1=O (10 µM)
inactive: ABL1 = 0 | AKT1 = 0 | ALK 0 | ARAF 0 | AURKA 0 | AURKB 0 | AURKC 0 | BLK 0 | BMX 0 | BRAF 0

O=c1c2c([nH]n1-c1nc3ccccc3s1)CCCC2 (10 µM)
inactive: ABL1 = 0 | AKT1 = 0 | ALK 0 | ARAF 0 | AURKA 0 | AURKB 0 | AURKC 0 | BLK 0 | BMX 0 | BRAF 0
